# From patent US7579005B2, “Process for recombinant expression and purification of antimicrobial peptides using periplasmic targeting signals as precipitable hydrophobic tags” (E. I. du Pont de Nemours and Company, priority 2005, dated 2009)
# At least one peptide structure holds a part that was inferred or is arguable (an end, a ring closure or a residue). Residues, ends and D or L forms follow the SMILES beside them.
# Test system: E. coli 25922
# Assay: E. coli static bioassay
# Assay type: cell-based
# Settings: static bioassay against E. coli 25922; recombinant peptide compared with chemically synthesized peptide
structure (smiles),measurement,value
CC(C)C[C@H](NC(=O)[C@H](CCCCN)NC(=O)[C@H](CC(C)C)NC(=O)[C@H](CC(C)C)NC(=O)[C@H](CCCCN)NC(=O)[C@H](CCCCN)NC(=O)[C@H](CC(C)C)NC(=O)CNC(=O)[C@H](CCCCN)NC(=O)[C@H](CC(C)C)NC(=O)[C@H](CC(C)C)NC(=O)[C@H](CCCCN)NC(=O)[C@H](CCCCN)NC(=O)[C@H](CC(C)C)NC(=O)CNC(=O)[C@H](CCCCN)NC(=O)[C@@H]1CCCN1)C(=O)O [P16KGLG1] (H-PKGLKKLLKGLKKLLKL-OH; N-terminus and C-terminus assumed),antimicrobial activity,identical to chemically synthesized peptide
